From PMC12866797, “Targeting DESI2 as a Novel Therapeutic Strategy for JAK2‐Mutant Leukemias” (Advanced Science, 2025)
These are yes or no findings as the source states them, for the method shown. In cells and extracts the contact can be indirect. Some entries that bind do so weakly or less than the wild type.

By UniProt entry, the sequences of proteins in these tests, tags left out. Where a name states a change or a piece, a line headed by the entry shows the natural chain unless it says otherwise.
UniProt O60674: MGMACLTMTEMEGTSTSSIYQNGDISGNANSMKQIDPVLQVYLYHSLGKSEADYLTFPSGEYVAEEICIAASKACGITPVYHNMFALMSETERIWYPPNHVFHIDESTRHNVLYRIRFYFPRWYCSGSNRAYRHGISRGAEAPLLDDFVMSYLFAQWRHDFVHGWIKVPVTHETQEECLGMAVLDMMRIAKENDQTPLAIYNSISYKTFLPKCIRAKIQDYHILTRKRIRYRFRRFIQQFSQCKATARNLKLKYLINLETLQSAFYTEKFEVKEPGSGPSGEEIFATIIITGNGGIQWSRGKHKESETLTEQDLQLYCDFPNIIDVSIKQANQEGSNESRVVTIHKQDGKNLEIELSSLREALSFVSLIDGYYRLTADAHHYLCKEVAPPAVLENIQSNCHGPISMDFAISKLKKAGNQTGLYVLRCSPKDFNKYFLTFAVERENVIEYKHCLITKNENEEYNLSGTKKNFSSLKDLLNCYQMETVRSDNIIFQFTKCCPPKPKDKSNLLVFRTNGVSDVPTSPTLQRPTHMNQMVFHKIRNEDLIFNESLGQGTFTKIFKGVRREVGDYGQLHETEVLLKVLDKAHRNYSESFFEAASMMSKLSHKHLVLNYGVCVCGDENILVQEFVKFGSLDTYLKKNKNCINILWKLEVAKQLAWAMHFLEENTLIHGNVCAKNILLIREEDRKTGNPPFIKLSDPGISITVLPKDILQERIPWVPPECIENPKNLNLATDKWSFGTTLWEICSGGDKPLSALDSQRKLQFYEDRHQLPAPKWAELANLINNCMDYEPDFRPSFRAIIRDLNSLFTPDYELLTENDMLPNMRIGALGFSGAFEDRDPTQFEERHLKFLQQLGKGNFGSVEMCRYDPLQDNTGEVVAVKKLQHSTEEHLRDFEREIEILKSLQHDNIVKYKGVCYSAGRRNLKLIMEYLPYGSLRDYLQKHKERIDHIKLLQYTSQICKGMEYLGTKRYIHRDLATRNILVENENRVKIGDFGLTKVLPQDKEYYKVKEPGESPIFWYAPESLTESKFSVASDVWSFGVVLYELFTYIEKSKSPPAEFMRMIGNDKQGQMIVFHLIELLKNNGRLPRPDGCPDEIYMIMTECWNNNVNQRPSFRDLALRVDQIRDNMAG
UniProt Q9D291: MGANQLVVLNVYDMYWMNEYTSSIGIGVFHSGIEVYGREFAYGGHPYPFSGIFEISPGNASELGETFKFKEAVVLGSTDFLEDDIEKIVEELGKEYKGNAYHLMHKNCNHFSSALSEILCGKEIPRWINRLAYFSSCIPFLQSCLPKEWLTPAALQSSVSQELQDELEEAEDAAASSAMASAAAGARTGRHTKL
UniProt Q9BSY9: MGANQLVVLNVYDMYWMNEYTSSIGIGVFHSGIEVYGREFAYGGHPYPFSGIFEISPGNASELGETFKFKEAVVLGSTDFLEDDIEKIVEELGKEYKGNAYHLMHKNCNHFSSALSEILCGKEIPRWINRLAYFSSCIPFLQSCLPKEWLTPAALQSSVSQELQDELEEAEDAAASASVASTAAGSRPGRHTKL
UniProt P08238: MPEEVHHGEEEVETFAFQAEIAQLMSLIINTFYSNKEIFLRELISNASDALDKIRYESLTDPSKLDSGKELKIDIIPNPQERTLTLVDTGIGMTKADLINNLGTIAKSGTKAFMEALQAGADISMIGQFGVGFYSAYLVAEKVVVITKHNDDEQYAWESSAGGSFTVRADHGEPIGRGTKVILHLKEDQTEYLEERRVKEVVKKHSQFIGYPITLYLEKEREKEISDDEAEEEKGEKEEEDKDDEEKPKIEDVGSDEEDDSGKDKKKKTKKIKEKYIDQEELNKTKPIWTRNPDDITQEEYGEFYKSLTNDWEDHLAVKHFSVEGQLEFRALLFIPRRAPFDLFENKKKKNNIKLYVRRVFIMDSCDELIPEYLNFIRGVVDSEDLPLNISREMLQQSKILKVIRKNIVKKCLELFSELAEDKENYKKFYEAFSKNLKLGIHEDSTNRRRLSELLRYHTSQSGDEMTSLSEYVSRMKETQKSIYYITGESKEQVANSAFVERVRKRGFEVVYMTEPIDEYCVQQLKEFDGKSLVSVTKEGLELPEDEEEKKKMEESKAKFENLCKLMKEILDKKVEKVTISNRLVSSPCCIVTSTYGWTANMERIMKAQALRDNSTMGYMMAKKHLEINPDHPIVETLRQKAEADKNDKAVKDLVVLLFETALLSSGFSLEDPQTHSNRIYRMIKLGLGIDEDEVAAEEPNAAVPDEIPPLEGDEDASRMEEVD
UniProt Q62120: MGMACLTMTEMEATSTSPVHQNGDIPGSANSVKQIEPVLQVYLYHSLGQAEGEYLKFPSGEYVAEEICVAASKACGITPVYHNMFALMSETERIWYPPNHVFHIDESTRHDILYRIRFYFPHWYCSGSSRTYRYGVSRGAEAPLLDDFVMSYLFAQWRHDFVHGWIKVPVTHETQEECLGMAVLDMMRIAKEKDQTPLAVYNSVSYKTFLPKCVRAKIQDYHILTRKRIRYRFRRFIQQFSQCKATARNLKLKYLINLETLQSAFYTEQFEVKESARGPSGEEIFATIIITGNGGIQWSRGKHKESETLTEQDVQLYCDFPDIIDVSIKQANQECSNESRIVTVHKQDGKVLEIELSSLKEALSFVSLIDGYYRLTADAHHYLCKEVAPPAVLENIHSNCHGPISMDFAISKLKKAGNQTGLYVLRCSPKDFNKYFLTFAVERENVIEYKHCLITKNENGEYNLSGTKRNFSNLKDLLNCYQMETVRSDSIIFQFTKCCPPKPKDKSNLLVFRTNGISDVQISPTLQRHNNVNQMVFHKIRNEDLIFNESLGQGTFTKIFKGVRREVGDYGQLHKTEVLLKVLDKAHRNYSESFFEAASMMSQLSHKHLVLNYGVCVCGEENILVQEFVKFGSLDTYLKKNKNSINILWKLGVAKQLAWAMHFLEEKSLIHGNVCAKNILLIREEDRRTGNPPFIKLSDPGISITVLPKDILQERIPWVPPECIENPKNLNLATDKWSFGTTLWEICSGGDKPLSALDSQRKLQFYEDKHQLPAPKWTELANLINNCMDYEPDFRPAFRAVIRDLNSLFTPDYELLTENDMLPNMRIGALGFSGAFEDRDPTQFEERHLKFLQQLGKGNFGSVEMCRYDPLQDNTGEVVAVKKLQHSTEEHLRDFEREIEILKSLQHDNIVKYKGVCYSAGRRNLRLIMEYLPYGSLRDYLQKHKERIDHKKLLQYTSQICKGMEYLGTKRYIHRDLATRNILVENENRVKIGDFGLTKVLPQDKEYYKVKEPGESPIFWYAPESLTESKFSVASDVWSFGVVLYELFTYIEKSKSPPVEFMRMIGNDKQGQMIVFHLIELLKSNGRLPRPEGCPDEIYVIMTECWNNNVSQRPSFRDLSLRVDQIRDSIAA

Legend:
[1] = molecular target: FLAG-tagged JAK2-V617F (HEK293T) (UniProt O60674); experiment: co-IP; HEK293T cells transfected with FLAG-JAK2-V617F, lysed 48 h after transfection; reciprocal IP with FLAG IgG beads or anti-DESI2 antibody; immunoblot
[2] = molecular target: JAK2-V617F (endogenous, HEL cells) (human (endogenous in HEL)) (UniProt O60674); experiment: co-IP; endogenous proteins, HEL lysate; reciprocal IP with anti-JAK2 or anti-DESI2 antibodies; immunoblot
[3] = molecular target: DESI2 (endogenous, Ba/F3 cells) (mouse (endogenous in Ba/F3)) (UniProt Q9D291); experiment: co-IP; Ba/F3-wt and Ba/F3-JAK2-V617F isogenic lines; co-IP using DESI2 antibodies; DESI2 levels normalised between the two lines

binding [1] | binding [2] | binding [3] | Substance
binds | binds | – | DESI2 (endogenous, human cell lines) (from UniProt Q9BSY9 1-194) (enzyme)
– | binds | – | HSP90AB1 (endogenous, HEL cells) (from UniProt P08238 1-724)
– | – | no binding | wild-type JAK2 of Ba/F3-wt cells (from UniProt Q62120 1-1132)
